The test deals with T1, oligoadenylate synthetase 3 (OAS3) (human (endogenous in A549)) (UniProt Q9Y6K5).
T1 sequence: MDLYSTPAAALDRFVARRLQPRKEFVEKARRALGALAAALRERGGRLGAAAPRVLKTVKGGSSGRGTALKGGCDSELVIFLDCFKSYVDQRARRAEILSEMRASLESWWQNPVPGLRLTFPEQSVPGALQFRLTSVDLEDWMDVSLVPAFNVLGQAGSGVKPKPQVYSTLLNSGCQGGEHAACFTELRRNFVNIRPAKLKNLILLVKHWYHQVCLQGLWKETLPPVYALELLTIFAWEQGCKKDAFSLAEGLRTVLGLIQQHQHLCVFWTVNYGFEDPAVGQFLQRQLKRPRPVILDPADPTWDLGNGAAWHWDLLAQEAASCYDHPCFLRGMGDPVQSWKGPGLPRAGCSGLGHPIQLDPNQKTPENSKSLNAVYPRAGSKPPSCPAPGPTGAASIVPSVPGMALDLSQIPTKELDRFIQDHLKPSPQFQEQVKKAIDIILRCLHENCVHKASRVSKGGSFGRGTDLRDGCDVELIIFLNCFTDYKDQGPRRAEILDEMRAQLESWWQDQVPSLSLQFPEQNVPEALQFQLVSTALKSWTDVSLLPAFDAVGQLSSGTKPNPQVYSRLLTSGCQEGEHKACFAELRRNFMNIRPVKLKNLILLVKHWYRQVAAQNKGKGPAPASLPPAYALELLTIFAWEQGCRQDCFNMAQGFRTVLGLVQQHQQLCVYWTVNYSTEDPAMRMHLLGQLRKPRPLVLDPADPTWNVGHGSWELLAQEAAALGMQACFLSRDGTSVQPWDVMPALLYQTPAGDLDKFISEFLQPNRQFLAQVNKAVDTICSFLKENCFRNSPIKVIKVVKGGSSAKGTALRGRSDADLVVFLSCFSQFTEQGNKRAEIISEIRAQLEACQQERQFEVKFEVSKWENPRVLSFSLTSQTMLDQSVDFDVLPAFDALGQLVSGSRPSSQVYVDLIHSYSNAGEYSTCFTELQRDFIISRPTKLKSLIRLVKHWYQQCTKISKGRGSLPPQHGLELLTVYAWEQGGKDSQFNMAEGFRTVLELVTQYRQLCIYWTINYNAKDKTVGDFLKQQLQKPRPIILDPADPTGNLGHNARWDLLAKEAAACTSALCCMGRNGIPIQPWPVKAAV
The test can be described thus: co-IP.

Sequences of proteins named here, by UniProt entry; tags and fusion partners are left off. A change or cut given only in a name is not applied to a line headed by its entry. A line that says so, or that is headed by a name, gives the form on record, which may keep a tag or linker.
zinc finger antiviral protein (ZAP), short (S) isoform (Q7Z2W4-2, form named): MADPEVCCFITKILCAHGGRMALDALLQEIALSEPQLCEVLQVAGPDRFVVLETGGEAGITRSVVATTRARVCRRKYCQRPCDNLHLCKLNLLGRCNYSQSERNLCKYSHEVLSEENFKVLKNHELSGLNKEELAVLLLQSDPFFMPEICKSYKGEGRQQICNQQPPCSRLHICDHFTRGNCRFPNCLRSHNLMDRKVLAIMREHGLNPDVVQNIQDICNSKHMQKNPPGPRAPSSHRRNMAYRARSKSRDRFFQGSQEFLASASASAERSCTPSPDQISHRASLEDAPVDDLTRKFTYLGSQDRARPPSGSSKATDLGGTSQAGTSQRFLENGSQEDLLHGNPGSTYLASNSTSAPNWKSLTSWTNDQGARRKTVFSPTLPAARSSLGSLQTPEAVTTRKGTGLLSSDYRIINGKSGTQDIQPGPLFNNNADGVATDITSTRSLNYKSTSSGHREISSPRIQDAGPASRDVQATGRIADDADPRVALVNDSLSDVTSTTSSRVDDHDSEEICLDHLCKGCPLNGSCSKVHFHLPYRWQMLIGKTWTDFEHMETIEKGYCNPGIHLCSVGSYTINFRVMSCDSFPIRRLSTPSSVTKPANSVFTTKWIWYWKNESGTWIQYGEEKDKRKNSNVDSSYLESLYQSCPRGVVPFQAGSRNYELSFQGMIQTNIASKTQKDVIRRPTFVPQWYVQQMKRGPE

These are yes or no findings as the source states them, for the method shown. Binding seen in cells or lysates may run through a third protein. Some entries that bind do so weakly or less than the wild type.

For “zinc finger antiviral protein (ZAP), long (L) isoform (from UniProt Q7Z2W4-1 1-902)”, the binding entry is on record as “binds”. Then “zinc finger antiviral protein (ZAP), short (S) isoform (from UniProt Q7Z2W4-2 1-699)”, with “binds”.

The values are drawn from doi:10.1101/2020.05.14.097329.
